The supplement of paper PMC6411743
± gives the standard deviation of the averaged measurements. This is a selection; strong and weak results do not stand in their true shares. Small differences around the control level are noise.

Amino acid sequences for entries named in this document (tags omitted). A change or cut given only in a name is not applied to a line headed by its entry.
UniProt Q6ULP2: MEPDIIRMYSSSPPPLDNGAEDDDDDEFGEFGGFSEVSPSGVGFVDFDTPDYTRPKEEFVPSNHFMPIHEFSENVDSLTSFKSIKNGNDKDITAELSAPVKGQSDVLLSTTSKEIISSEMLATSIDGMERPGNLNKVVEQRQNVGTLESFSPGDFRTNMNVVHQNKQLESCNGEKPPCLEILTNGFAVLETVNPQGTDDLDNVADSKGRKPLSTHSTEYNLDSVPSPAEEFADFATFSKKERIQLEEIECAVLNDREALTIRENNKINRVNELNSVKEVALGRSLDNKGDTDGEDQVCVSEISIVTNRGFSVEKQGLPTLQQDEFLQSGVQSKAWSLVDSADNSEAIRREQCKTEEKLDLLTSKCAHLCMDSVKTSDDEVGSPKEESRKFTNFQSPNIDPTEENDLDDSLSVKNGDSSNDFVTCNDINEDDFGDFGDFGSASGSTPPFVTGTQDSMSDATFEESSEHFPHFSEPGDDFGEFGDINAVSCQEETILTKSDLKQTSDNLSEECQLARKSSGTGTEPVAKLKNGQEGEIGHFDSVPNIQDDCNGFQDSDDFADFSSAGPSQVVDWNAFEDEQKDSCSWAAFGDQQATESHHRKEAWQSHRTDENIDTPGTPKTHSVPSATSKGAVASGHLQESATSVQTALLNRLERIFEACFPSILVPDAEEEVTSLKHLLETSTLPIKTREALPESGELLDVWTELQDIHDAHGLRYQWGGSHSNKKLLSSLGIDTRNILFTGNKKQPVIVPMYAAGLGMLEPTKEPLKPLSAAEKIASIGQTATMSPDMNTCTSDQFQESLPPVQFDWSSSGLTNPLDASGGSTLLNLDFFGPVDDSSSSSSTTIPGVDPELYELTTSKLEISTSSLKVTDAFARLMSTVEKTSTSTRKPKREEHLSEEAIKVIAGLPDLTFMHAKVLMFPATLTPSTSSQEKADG
UniProt Q7L1T6: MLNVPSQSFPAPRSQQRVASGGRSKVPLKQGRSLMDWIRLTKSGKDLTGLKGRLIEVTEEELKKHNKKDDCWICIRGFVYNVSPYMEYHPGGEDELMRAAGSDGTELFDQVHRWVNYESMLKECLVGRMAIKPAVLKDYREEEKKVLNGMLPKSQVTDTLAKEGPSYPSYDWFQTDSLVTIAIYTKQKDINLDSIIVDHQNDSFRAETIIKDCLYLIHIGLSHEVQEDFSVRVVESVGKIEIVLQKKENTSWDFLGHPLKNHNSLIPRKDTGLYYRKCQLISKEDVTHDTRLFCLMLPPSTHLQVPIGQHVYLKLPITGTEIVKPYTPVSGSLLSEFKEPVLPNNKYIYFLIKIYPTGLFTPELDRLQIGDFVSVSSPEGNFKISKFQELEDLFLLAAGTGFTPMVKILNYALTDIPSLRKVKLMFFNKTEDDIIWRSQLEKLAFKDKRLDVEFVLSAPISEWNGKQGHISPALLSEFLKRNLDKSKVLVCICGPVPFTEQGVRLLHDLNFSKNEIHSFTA
UniProt Q658Y4: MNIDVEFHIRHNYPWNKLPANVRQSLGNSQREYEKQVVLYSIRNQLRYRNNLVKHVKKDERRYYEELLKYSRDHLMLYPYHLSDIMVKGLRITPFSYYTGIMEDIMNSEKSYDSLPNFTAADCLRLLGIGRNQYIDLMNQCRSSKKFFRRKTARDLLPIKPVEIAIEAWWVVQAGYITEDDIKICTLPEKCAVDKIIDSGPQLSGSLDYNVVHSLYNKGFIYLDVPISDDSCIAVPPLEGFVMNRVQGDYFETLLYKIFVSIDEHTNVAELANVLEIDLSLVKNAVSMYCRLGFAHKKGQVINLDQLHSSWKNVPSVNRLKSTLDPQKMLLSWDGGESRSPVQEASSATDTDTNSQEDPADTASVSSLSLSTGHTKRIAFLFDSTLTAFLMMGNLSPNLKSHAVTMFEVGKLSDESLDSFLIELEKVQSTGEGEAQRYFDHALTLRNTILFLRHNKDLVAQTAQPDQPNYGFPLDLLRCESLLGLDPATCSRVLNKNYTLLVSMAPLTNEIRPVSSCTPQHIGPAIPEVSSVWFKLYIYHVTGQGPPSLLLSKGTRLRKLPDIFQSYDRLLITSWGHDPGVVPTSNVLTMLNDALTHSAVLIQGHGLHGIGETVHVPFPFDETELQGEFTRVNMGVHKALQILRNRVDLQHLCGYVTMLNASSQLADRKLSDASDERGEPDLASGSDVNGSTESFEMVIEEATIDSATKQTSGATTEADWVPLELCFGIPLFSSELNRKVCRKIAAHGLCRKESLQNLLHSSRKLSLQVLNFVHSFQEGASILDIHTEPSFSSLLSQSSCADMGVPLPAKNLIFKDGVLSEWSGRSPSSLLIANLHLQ
UniProt Q7L4I2: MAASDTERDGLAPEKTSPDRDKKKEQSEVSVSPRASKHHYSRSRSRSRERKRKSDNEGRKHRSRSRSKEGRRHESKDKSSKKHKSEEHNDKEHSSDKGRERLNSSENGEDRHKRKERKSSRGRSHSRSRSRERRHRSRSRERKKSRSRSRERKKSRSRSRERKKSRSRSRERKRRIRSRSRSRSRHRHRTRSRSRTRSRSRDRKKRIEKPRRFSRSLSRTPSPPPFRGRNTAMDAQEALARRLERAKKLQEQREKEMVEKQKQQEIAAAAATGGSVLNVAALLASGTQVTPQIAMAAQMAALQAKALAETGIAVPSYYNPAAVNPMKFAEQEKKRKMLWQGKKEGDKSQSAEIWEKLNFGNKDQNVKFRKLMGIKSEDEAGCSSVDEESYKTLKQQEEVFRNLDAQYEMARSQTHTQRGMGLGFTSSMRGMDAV
UniProt Q7LGA3: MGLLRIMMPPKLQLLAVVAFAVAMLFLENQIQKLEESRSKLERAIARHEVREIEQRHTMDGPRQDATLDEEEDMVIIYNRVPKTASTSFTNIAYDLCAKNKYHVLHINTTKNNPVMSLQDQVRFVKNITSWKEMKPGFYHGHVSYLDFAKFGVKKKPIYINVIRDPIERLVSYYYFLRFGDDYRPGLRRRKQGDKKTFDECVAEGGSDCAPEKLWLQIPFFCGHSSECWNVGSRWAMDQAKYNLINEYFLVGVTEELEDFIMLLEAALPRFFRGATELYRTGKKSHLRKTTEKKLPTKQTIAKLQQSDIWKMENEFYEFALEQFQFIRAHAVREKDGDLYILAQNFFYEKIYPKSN
UniProt Q6IN84: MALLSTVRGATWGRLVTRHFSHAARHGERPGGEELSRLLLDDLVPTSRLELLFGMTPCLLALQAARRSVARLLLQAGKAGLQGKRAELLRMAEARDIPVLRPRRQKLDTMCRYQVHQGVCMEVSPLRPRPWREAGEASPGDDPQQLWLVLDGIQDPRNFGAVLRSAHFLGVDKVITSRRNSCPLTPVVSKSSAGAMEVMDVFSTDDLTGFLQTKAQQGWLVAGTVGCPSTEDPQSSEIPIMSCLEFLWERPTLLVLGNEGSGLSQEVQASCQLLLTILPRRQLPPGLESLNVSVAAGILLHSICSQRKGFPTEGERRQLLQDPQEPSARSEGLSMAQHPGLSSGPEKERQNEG
UniProt Q7KYR7: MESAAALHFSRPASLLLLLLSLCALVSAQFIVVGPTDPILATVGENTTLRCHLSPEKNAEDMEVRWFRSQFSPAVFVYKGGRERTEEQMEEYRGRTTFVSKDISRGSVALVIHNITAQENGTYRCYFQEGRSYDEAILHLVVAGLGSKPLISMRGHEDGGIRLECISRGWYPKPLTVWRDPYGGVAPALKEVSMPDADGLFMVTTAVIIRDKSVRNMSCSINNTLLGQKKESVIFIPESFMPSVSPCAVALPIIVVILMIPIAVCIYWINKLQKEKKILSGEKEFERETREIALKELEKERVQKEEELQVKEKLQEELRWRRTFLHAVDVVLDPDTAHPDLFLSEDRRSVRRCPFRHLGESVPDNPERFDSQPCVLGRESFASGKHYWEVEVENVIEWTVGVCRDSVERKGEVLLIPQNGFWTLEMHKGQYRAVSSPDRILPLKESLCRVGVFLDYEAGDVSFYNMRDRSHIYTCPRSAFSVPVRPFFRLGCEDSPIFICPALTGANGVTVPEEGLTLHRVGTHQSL
UniProt Q6UN15: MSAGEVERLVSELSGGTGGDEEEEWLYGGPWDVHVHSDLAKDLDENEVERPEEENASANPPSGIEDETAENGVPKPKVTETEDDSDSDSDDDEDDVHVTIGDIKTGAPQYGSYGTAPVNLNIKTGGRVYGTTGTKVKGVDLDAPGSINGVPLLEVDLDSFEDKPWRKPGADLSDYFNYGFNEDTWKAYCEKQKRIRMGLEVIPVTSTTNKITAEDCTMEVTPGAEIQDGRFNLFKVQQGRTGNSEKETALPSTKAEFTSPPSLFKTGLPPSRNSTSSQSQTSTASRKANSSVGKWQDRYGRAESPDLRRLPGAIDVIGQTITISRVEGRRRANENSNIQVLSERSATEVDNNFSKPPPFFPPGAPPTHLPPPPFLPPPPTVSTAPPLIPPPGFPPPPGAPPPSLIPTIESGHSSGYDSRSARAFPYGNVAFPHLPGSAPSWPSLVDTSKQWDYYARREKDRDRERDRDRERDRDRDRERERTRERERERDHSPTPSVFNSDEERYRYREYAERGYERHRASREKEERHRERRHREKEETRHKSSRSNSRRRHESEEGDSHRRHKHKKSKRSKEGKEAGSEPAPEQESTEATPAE
UniProt Q6P9B6: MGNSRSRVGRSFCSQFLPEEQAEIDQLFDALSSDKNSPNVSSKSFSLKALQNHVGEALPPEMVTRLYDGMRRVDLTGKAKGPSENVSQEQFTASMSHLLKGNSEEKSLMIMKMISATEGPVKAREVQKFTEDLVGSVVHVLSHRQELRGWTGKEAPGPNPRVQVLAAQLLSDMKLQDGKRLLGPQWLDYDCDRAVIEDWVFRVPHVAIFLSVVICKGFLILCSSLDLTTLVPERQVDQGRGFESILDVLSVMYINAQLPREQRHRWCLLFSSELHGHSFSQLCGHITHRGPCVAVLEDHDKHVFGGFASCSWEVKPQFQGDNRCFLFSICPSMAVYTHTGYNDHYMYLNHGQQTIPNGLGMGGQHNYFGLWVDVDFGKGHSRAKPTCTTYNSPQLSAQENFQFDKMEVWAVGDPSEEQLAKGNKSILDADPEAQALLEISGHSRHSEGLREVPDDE
UniProt Q6P6B1: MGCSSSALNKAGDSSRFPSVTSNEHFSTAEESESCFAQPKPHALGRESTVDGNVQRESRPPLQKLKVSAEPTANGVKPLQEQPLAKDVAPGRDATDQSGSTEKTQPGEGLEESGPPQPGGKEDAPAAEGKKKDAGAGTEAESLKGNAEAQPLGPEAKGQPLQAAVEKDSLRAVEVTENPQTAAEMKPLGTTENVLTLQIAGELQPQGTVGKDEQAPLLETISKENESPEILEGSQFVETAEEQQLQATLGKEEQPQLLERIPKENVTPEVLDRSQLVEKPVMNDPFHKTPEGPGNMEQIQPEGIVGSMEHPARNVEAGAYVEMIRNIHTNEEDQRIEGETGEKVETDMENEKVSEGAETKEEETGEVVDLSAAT
UniProt Q5VVJ2: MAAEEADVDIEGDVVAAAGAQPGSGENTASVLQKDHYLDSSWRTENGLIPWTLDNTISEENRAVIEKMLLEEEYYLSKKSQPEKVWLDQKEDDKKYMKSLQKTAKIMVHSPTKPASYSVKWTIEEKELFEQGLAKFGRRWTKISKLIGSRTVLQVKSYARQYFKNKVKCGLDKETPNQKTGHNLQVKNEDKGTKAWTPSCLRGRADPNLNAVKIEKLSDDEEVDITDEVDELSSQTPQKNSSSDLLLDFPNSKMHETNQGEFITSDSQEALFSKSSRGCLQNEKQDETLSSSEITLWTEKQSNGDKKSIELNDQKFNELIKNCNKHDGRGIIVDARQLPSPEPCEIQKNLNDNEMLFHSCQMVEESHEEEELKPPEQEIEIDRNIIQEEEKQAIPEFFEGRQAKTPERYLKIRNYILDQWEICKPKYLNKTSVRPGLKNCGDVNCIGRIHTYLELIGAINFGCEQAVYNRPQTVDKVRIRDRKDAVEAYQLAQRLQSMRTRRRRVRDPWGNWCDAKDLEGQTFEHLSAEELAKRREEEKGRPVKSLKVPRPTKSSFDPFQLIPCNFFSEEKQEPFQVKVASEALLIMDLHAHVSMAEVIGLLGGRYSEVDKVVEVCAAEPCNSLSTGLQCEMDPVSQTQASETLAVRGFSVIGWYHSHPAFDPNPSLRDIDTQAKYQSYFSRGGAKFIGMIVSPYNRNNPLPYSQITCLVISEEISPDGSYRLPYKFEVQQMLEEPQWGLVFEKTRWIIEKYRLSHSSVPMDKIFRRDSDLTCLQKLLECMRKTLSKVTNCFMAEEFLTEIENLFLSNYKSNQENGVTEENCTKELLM
UniProt Q6ICB0: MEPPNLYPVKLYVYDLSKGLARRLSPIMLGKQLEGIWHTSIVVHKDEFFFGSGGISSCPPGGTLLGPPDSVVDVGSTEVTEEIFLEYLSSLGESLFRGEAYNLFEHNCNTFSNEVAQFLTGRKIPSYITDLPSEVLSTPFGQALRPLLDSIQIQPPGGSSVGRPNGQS

The targets below were run with Nc1ncnc2c1ncn2[C@@H]1O[C@H](COP(=O)(O)OP(=O)(O)NP(=O)(O)O)[C@@H](O)[C@H]1O [adenylyl imidodiphosphate] (assay: NP40-soluble protein abundance relative to vehicle (solubility fold change) (ratio); higher = more soluble protein in presence of AMP-PNP). Settings: concentration: 0.1mM.
Method in brief: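 Across three independent experiments, values are fold changes against the detergent-processed vehicle for each replicate, based on vsn-normalised intensities. The samples were Jurkat crude lysate treated with eight concentrations (0.1 to 10 mM) for 10 min at room temperature and then 3 min at 37 °C. Lysate was solubilised with 0.8% NP40 and benzonase, ultracentrifuged, and the supernatant analysed by TMT-labelled LC-MS/MS.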

Target	NP40-soluble protein abundance
APBB1IP (UniProt Q7Z5R6)	1 ± 0.034
UniProt Q6ULP2 and related entries	0.972 ± 0.022
CYB5R4 (UniProt Q7L1T6)	0.984 ± 0.031
FAM91A1 (UniProt Q658Y4)	1.01 ± 0.037
UniProt Q7Z591 and related entries	0.9872 ± 0.0045
UniProt Q7L4I2 and related entries	1.03 ± 0.025
UniProt Q6ZMI0	0.982 ± 0.029
UniProt Q6ZSZ5	0.989 ± 0.023
NADSYN1 (UniProt Q6IA69)	1.02 ± 0.057
UniProt Q7Z3K6 and related entries	1 ± 0.041
EEPD1 (UniProt Q7L9B9)	0.989 ± 0.034
HS2ST1 (UniProt Q7LGA3)	1.03 ± 0.053
UniProt Q6GPH4 and related entries	1.02 ± 0.025
ABHD13 (UniProt Q7L211)	1.0032 ± 0.00013
MRM1 (UniProt Q6IN84)	0.9899 ± 0.0091
UniProt Q7KYR7 and related entries	0.984 ± 0.024
UniProt Q6RI45 and related entries	1.02 ± 0.034
UniProt Q5VSL9	0.964 ± 0.015
RAB11FIP1 (UniProt Q6WKZ4)	0.973 ± 0.045
UniProt Q6UN15 and related entries	0.997 ± 0.033
UniProt Q6P9B6	1.02 ± 0.047
UniProt Q6Y7W6 and related entries	0.974 ± 0.018
UniProt Q6UB98 and related entries	1 ± 0.023
ERICH5 (UniProt Q6P6B1)	0.957 ± 0.03
MON1B (UniProt Q7L1V2)	1.01 ± 0.021
MYSM1 (UniProt Q5VVJ2)	0.958 ± 0.038
UniProt Q6ICB0	1 ± 0.038

Two records drawn at random from those above, as already listed:
Target	NP40-soluble protein abundance
RAB11FIP1 (UniProt Q6WKZ4)	0.973 ± 0.045
FAM91A1 (UniProt Q658Y4)	1.01 ± 0.037
